Literature values in US7425573B2, “Use of annellated pyrrole compounds in the treatment of articular cartilage or subchondral bone degeneration” (priority 2001, dated 2008).
At least one compound was matched to its structure with a doubt left.

Test system: experimental dog model of OA
Conditions: cited from earlier work

Question: Which “effect on progression of experimental OA” value does the source give for `NC(=O)N1C(=O)/C(=C(\O)c2cccs2)c2cc(Cl)ccc21` [Tenidap] here?
Answer: exhibit anti-OA effects
